{"source": "PubChem BioAssay AID248", "about": "(DTP/NCI, 2004)", "system": "L1210 leukemia ip in BDF1 mice, survival T/C", "assay": "NCI In Vivo Anticancer Drug Screen. Data for tumor model L1210 Leukemia (intraperitoneal) in B6D2F1 (BDF1) mice", "conditions": "T/C endpoint: mean survival time, higher T/C = longer survival", "key": {"[1]": {"conditions": "dose: 75.0 mg/kg/injection, schedule: Q01DX001 (ip), vehicle: saline"}, "[2]": {"conditions": "dose: 150.0 mg/kg/injection, schedule: Q01DX001 (ip), vehicle: saline"}, "[3]": {"conditions": "dose: 300.0 mg/kg/injection, schedule: Q01DX001 (ip), vehicle: saline"}, "[4]": {"conditions": "dose: 400.0 mg/kg/injection, schedule: Q04DX003 (ip), vehicle: saline"}, "[5]": {"conditions": "dose: 200.0 mg/kg/injection, schedule: Q01DX001 (ip), vehicle: carboxymethylcellulose (CMC)"}, "[6]": {"conditions": "dose: 400.0 mg/kg/injection, schedule: Q01DX001 (ip), vehicle: carboxymethylcellulose (CMC)"}, "[7]": {"conditions": "dose: 400.0 mg/kg/injection, schedule: Q04DX003 (ip), vehicle: Klucel (hydroxypropylcellulose) (HPC)"}, "[8]": {"conditions": "dose: 100.0 mg/kg/injection, schedule: Q01DX009 (ip), vehicle: Klucel (hydroxypropylcellulose) (HPC)"}, "[9]": {"conditions": "dose: 200.0 mg/kg/injection, schedule: Q01DX009 (ip), vehicle: Klucel (hydroxypropylcellulose) (HPC)"}, "[10]": {"conditions": "dose: 400.0 mg/kg/injection, schedule: Q01DX009 (ip), vehicle: Klucel (hydroxypropylcellulose) (HPC)"}, "[11]": {"conditions": "dose: 400.0 mg/kg/injection, schedule: Q01DX001 (ip), vehicle: saline"}}, "note": "The list does not hold the whole screen: it gathers tests that were run many times, whatever their T/C, doses with no T/C, and many T/C values between a quarter and a half above the control. Other doses and runs of a compound stand elsewhere. T/C: endpoint of the treated group in % of that of the vehicle group. Some entries give survivors of the animals treated and no T/C: the source files T/C as zero there, which appears to mark a toxic dose or a test without result, not a measured value. Some survivor counts are full or nearly so, which does not show that the dose was tolerated: the source hardly ever lists a survival T/C far under the control, and the zero likely stands for such cases as well. Survivors were counted at the toxicity check, usually on the fifth day, unless a day is given; later deaths do not show. Schedules are NCI's codes, taken here to give the interval after Q, in days (D) or hours (H), and the number of doses after X. Some schedule codes hold Z or #, which are not explained here. Some entries were tested several times; their values stand side by side, smallest first. For survival time, the PubChem record calls one and a half times the control and up active, and a quarter to a half above the control has no call in these data; cut-offs in other NCI protocols can differ."}
{"compound": "CCOC(=O)NC#N", "note": "(tested in a mixture with another compound)", "values": [{"measurement": "survivor count", "setting": "[1]", "value": "1 of 6"}, {"measurement": "survivor count", "setting": "[2]", "value": "0 of 6"}, {"measurement": "survivor count", "setting": "[3]", "value": "0 of 6"}]}
{"compound": "Cc1ccc(C(=O)CC(Sc2ccccc2N)c2c(Cl)cccc2Cl)c(C)c1", "note": "(configuration not stated)", "values": [{"measurement": "survivor count", "setting": "dose: 400.0 mg/kg/injection, schedule: Q01DX005 (ip), vehicle: Klucel (hydroxypropylcellulose) (HPC)", "value": "3 of 3"}]}
{"compound": "COc1nc(=S)n2[nH]cnc2n1", "values": [{"measurement": "survivor count", "setting": "[4]", "value": "3 of 6"}]}
{"compound": "NC(=S)N/N=C1\\c2ccccc2-c2c(F)c(F)c(F)c(F)c21", "values": [{"measurement": "survivor count", "setting": "dose: 40.0 mg/kg/injection, schedule: Q01DX001 (ip), vehicle: carboxymethylcellulose (CMC)", "value": "1 of 4"}, {"measurement": "survivor count", "setting": "dose: 50.0 mg/kg/injection, schedule: Q01DX001 (ip), vehicle: carboxymethylcellulose (CMC)", "value": "0 of 4"}, {"measurement": "survivor count", "setting": "dose: 80.0 mg/kg/injection, schedule: Q01DX001 (ip), vehicle: carboxymethylcellulose (CMC)", "value": "0 of 4"}, {"measurement": "survivor count", "setting": "dose: 100.0 mg/kg/injection, schedule: Q01DX001 (ip), vehicle: carboxymethylcellulose (CMC)", "value": "0 of 4"}, {"measurement": "survivor count", "setting": "[5]", "value": "0 of 4"}, {"measurement": "survivor count", "setting": "[6]", "value": "0 of 4"}]}
{"compound": "CC(C)(C)N1CC(C(O)c2ccccc2)C1c1ccccc1", "note": "(configuration not stated)", "values": [{"measurement": "survivor count", "setting": "[7]", "value": "3 of 6"}]}
{"compound": "c1ccc(C2C(CN3CCCCCC3)C2c2ccccc2)cc1", "note": "(configuration not stated)", "values": [{"measurement": "survivor count", "setting": "dose: 100.0 mg/kg/injection, schedule: Q04DX002 (ip), vehicle: Klucel (hydroxypropylcellulose) (HPC)", "value": "1 of 3 and 2 of 3"}, {"measurement": "survivor count", "setting": "dose: 200.0 mg/kg/injection, schedule: Q04DX002 (ip), vehicle: Klucel (hydroxypropylcellulose) (HPC)", "value": "0 of 3"}, {"measurement": "survivor count", "setting": "dose: 400.0 mg/kg/injection, schedule: Q04DX002 (ip), vehicle: Klucel (hydroxypropylcellulose) (HPC)", "value": "0 of 3"}]}
{"compound": "N#CCCO", "values": [{"measurement": "T/C", "setting": "dose: 200.0 mg/kg/injection, schedule: Q04DX002 (ip), vehicle: saline", "value": "125 % of control"}]}
{"compound": "Cc1nc2c(N)nn(C)c2nc1C", "values": [{"measurement": "survivor count", "setting": "dose: 400.0 mg/kg/injection, schedule: Q01DX009 (ip), vehicle: saline with Tween-80", "value": "3 of 6"}]}
{"compound": "Cc1cc([P+](c2ccccc2)(c2ccccc2)c2ccccc2)c(C)cc1[P+](c1ccccc1)(c1ccccc1)c1ccccc1", "values": [{"measurement": "survivor count", "setting": "dose: 6.25 mg/kg/injection, schedule: Q04DX003 (ip), vehicle: Klucel (hydroxypropylcellulose) (HPC)", "value": "3 of 6"}, {"measurement": "survivor count", "setting": "dose: 12.5 mg/kg/injection, schedule: Q04DX003 (ip), vehicle: Klucel (hydroxypropylcellulose) (HPC)", "value": "0 of 6"}, {"measurement": "survivor count", "setting": "dose: 25.0 mg/kg/injection, schedule: Q04DX003 (ip), vehicle: Klucel (hydroxypropylcellulose) (HPC)", "value": "0 of 6"}, {"measurement": "survivor count", "setting": "dose: 100.0 mg/kg/injection, schedule: Q04DX003 (ip), vehicle: saline", "value": "0 of 6"}, {"measurement": "survivor count", "setting": "dose: 200.0 mg/kg/injection, schedule: Q04DX003 (ip), vehicle: saline", "value": "0 of 6"}, {"measurement": "survivor count", "setting": "[4]", "value": "0 of 6"}]}
{"compound": "CC(C)C1(Br)C(=O)NC(=O)NC1=O", "values": [{"measurement": "survivor count", "setting": "dose: 25.0 mg/kg/injection, schedule: Q01DX009 (ip), vehicle: Klucel (hydroxypropylcellulose) (HPC)", "value": "1 of 6 and 2 of 6"}, {"measurement": "survivor count", "setting": "dose: 50.0 mg/kg/injection, schedule: Q01DX009 (ip), vehicle: Klucel (hydroxypropylcellulose) (HPC)", "value": "0 of 6"}, {"measurement": "survivor count", "setting": "[8]", "value": "0 of 6"}, {"measurement": "survivor count", "setting": "[9]", "value": "0 of 6"}, {"measurement": "survivor count", "setting": "[10]", "value": "0 of 6"}]}
{"compound": "O=C1OC(=O)C2C3C=CC(CC3)C12", "note": "(configuration not stated)", "values": [{"measurement": "survivor count", "setting": "[7]", "value": "0 of 6"}, {"measurement": "survivor count", "setting": "[4]", "value": "3 of 4"}]}
{"compound": "CN(C)CCOC(=O)c1cccc(CCl)c1CCl", "values": [{"measurement": "survivor count", "setting": "dose: 175.0 mg/kg/injection, schedule: Q01DX009 (ip), vehicle: saline", "value": "1 of 6"}, {"measurement": "survivor count", "setting": "dose: 350.0 mg/kg/injection, schedule: Q01DX009 (ip), vehicle: saline", "value": "0 of 6"}]}
{"compound": "O=C1C=C(N2CC2)C(=O)C(N2CC2)=C1N1CC1", "values": [{"measurement": "T/C", "setting": "dose: 0.02 mg/kg/injection, schedule: Q01DX Z (ip), vehicle: saline", "value": "140 % of control"}, {"measurement": "T/C", "setting": "dose: 0.05 mg/kg/injection, schedule: Q01DX Z (ip), vehicle: saline", "value": "145 % of control"}, {"measurement": "T/C", "setting": "dose: 0.15 mg/kg/injection, schedule: Q01DX001 (ip), vehicle: saline", "value": "126 % of control"}, {"measurement": "survivor count", "setting": "dose: 0.2 mg/kg/injection, schedule: Q01DX Z (ip), vehicle: saline", "value": "6 of 6"}, {"measurement": "survivor count", "setting": "[1]", "value": "0 of 6"}, {"measurement": "survivor count", "setting": "[2]", "value": "0 of 6"}, {"measurement": "survivor count", "setting": "[3]", "value": "0 of 6"}, {"measurement": "T/C", "setting": "dose: 50.0 micrograms/kg/injection, schedule: Q01DX015 (ip), vehicle: saline", "value": "127 and 135 % of control"}, {"measurement": "T/C", "setting": "dose: 100.0 micrograms/kg/injection, schedule: Q01DX015 (ip), vehicle: saline", "value": "147 % of control"}, {"measurement": "T/C", "setting": "dose: 150.0 micrograms/kg/injection, schedule: Q01DX009 (ip), vehicle: saline", "value": "135 % of control"}, {"measurement": "T/C", "setting": "dose: 200.0 micrograms/kg/injection, schedule: Q01DX015 (ip), vehicle: saline", "value": "133 % of control"}, {"measurement": "survivor count", "setting": "dose: 300.0 micrograms/kg/injection, schedule: Q01DX009 (ip), vehicle: saline", "value": "5 of 6"}, {"measurement": "survivor count", "setting": "dose: 400.0 micrograms/kg/injection, schedule: Q01DX015 (ip), vehicle: saline", "value": "6 of 6"}, {"measurement": "survivor count", "setting": "dose: 600.0 micrograms/kg/injection, schedule: Q01DX009 (ip), vehicle: saline", "value": "2 of 6"}]}
{"compound": "CN1CCN(CCN2CCN(CCCN3c4ccccc4Sc4ccc(Cl)cc43)CC2)C1=O", "values": [{"measurement": "survivor count", "setting": "[5]", "value": "1 of 6"}, {"measurement": "survivor count", "setting": "[6]", "value": "0 of 6"}]}
{"compound": "CC(O)C[P+](c1ccccc1)(c1ccccc1)c1ccccc1", "note": "(configuration not stated)", "values": [{"measurement": "survivor count", "setting": "[11]", "value": "0 of 4"}]}
{"compound": "Cc1ccc(Nc2cc(C)nc(N)n2)cc1", "values": [{"measurement": "survivor count", "setting": "dose: 50.0 mg/kg/injection, schedule: Q01DX Z (ip), vehicle: methylcellulose (MC)", "value": "0 of 6"}, {"measurement": "survivor count", "setting": "dose: 100.0 mg/kg/injection, schedule: Q01DX Z (ip), vehicle: methylcellulose (MC)", "value": "0 of 6"}, {"measurement": "survivor count", "setting": "dose: 200.0 mg/kg/injection, schedule: Q01DX Z (ip), vehicle: methylcellulose (MC)", "value": "0 of 6"}]}
{"compound": "NCc1cc2c3c(c1)CCCN3CCC2", "values": [{"measurement": "survivor count", "setting": "dose: 75.0 mg/kg/injection, schedule: Q01DX009 (ip), vehicle: saline", "value": "0 of 6"}, {"measurement": "survivor count", "setting": "dose: 100.0 mg/kg/injection, schedule: Q01DX001 (ip), vehicle: saline", "value": "0 of 6"}, {"measurement": "survivor count", "setting": "dose: 115.0 mg/kg/injection, schedule: Q01DX009 (ip), vehicle: saline", "value": "0 of 6"}, {"measurement": "survivor count", "setting": "dose: 170.0 mg/kg/injection, schedule: Q01DX009 (ip), vehicle: saline", "value": "0 of 6"}, {"measurement": "survivor count", "setting": "dose: 200.0 mg/kg/injection, schedule: Q01DX001 (ip), vehicle: saline", "value": "1 of 6"}, {"measurement": "survivor count", "setting": "[11]", "value": "1 of 6"}]}
{"compound": "CC(C)=CCC(C#N)(CCN1CCCC1)c1cccc2ccccc12", "note": "(configuration not stated)", "values": [{"measurement": "survivor count", "setting": "[8]", "value": "5 of 6"}, {"measurement": "survivor count", "setting": "[9]", "value": "0 of 6"}, {"measurement": "survivor count", "setting": "[10]", "value": "0 of 6"}]}
{"compound": "COc1cc(N(CCCl)CCCl)ccc1CN1CCCN(Cc2ccc(N(CCCl)CCCl)cc2OC)C1c1ccccc1O", "values": [{"measurement": "survivor count", "setting": "[7]", "value": "6 of 6"}]}
